Results published in publication PMC8917357.
Results are given in words; binding and its absence hold for the method and conditions named. In cells and extracts the contact can be indirect. Some entries that bind do so weakly or less than the wild type.

Protein sequences, listed by entry. Tags and fused reporters are not part of them.
UniProt O76216: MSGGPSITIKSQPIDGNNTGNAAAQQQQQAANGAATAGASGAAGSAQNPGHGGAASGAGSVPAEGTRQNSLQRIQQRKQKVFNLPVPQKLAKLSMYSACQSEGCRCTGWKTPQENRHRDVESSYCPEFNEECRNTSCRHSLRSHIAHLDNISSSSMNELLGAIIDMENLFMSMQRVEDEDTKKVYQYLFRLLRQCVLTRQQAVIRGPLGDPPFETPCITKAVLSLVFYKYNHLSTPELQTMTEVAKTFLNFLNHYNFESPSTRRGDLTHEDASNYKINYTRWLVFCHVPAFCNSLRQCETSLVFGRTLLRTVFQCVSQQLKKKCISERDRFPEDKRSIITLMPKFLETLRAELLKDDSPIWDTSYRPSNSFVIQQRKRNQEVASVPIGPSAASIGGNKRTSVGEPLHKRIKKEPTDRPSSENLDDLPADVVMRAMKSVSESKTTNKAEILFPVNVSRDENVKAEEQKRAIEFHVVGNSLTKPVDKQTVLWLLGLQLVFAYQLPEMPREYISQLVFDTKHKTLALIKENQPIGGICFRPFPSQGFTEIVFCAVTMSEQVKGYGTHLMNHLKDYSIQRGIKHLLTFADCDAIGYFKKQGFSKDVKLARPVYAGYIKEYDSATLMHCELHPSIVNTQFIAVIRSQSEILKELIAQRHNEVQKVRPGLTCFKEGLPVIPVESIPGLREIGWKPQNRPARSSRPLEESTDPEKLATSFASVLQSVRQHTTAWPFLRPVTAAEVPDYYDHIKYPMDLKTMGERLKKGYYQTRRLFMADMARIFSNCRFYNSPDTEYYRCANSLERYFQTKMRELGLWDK

Target: T1, Ada2b-PA (Drosophila melanogaster) (UniProt Q8I8V0)
T1 sequence: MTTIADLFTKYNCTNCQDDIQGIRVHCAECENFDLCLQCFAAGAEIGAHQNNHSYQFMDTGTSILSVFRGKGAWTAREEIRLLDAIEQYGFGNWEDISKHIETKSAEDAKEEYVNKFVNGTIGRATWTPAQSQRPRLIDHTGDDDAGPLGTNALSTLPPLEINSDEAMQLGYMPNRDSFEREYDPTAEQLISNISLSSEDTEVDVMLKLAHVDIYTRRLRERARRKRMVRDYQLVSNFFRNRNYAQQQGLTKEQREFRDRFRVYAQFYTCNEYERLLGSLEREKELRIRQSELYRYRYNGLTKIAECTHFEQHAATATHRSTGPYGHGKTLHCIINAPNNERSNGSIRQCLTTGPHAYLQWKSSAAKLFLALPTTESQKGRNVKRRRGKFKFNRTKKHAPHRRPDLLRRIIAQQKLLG
Test: co-IP; subunits expressed in Sf21 cells using Baculovirus; His-FLAG-Ada2b-PA with a single other subunit, tested for direct interaction; western blots with anti-Gcn5, anti-Ada3, anti-Sgf29, anti-FLAG

- binding: binds
Substance: Gcn5 (from UniProt O76216 1-813) (enzyme)
